## Screening data

From PubChem BioAssay record AID504749 (NCATS, 2011).

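Malaria parasite (P. falciparum) lines kept in red blood cells; parasite DNA is measured by SYBR Green fluorescence after lysis, 72 h after compound addition. Each compound was titrated across a series from about 0.000037 to 29 µM. The number is the fitted AC50, the concentration giving a half-maximal change in signal; a lower value means higher potency, whether the curve shows a decrease or an increase. Calls follow the curve class and fit quality: every row here is inconclusive, covering signal-raising curves and weak, poorly fitted, partial or highest-dose-only inhibition curves.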

Values are in nM. Every entry below has the call inconclusive. Only part of the assay is shown, chiefly results filed as inconclusive. Potencies fitted to partial, single-point or poorly fitting curves are rough.

SMILES: O=C(O)c1cc(O)c2c(c1)[C@H]([C@H]1c3cc(C(=O)O)cc(O)c3C(=O)c3c(O[C@@H]4OC(CO)C(O)C(O)C4O)cccc31)c1cccc(O[C@@H]3OC(CO)C(O)C(O)C3O)c1C2=O (some centres undefined)
tested on / at: PC26
potency (nM): 19011
curve as filed: inhibitor, single point

SMILES: O=C(O)c1cc(O)c2c(c1)[C@H]([C@H]1c3cc(C(=O)O)cc(O)c3C(=O)c3c(O[C@@H]4OC(CO)C(O)C(O)C4O)cccc31)c1cccc(O[C@@H]3OC(CO)C(O)C(O)C3O)c1C2=O (some centres undefined)
tested on / at: CP315
potency (nM): 19011
curve as filed: inhibitor, single point

SMILES: O=C(O)c1cc(O)c2c(c1)[C@H]([C@H]1c3cc(C(=O)O)cc(O)c3C(=O)c3c(O[C@@H]4OC(CO)C(O)C(O)C4O)cccc31)c1cccc(O[C@@H]3OC(CO)C(O)C(O)C3O)c1C2=O (some centres undefined)
tested on / at: CP201
potency (nM): 19011
curve as filed: inhibitor, single point

SMILES: O=C(O)c1cc(O)c2c(c1)[C@H]([C@H]1c3cc(C(=O)O)cc(O)c3C(=O)c3c(O[C@@H]4OC(CO)C(O)C(O)C4O)cccc31)c1cccc(O[C@@H]3OC(CO)C(O)C(O)C3O)c1C2=O (some centres undefined)
tested on / at: DIV14
potency (nM): 16944
curve as filed: inhibitor, single point

SMILES: O=C(O)c1cc(O)c2c(c1)[C@H]([C@H]1c3cc(C(=O)O)cc(O)c3C(=O)c3c(O[C@@H]4OC(CO)C(O)C(O)C4O)cccc31)c1cccc(O[C@@H]3OC(CO)C(O)C(O)C3O)c1C2=O (some centres undefined)
tested on / at: CP268
potency (nM): 16944
curve as filed: inhibitor, single point

SMILES: O=C(O)c1cc(O)c2c(c1)[C@H]([C@H]1c3cc(C(=O)O)cc(O)c3C(=O)c3c(O[C@@H]4OC(CO)C(O)C(O)C4O)cccc31)c1cccc(O[C@@H]3OC(CO)C(O)C(O)C3O)c1C2=O (some centres undefined)
tested on / at: CP269
potency (nM): 19011
curve as filed: inhibitor, single point

SMILES: O=C(O)c1cc(O)c2c(c1)[C@H]([C@H]1c3cc(C(=O)O)cc(O)c3C(=O)c3c(O[C@@H]4OC(CO)C(O)C(O)C4O)cccc31)c1cccc(O[C@@H]3OC(CO)C(O)C(O)C3O)c1C2=O (some centres undefined)
tested on / at: CP329
potency (nM): 19011
curve as filed: inhibitor, single point

SMILES: O=C(O)c1cc(O)c2c(c1)[C@H]([C@H]1c3cc(C(=O)O)cc(O)c3C(=O)c3c(O[C@@H]4OC(CO)C(O)C(O)C4O)cccc31)c1cccc(O[C@@H]3OC(CO)C(O)C(O)C3O)c1C2=O (some centres undefined)
tested on / at: CP266
potency (nM): 15101
curve as filed: inhibitor, single point

SMILES: O=C(O)c1cc(O)c2c(c1)[C@H]([C@H]1c3cc(C(=O)O)cc(O)c3C(=O)c3c(O[C@@H]4OC(CO)C(O)C(O)C4O)cccc31)c1cccc(O[C@@H]3OC(CO)C(O)C(O)C3O)c1C2=O (some centres undefined)
tested on / at: DIV17
potency (nM): 19011
curve as filed: inhibitor, single point

SMILES: O=C(O)c1cc(O)c2c(c1)[C@H]([C@H]1c3cc(C(=O)O)cc(O)c3C(=O)c3c(O[C@@H]4OC(CO)C(O)C(O)C4O)cccc31)c1cccc(O[C@@H]3OC(CO)C(O)C(O)C3O)c1C2=O (some centres undefined)
tested on / at: CP192
potency (nM): 16944
curve as filed: inhibitor, single point

SMILES: O=C(O)c1cc(O)c2c(c1)[C@H]([C@H]1c3cc(C(=O)O)cc(O)c3C(=O)c3c(O[C@@H]4OC(CO)C(O)C(O)C4O)cccc31)c1cccc(O[C@@H]3OC(CO)C(O)C(O)C3O)c1C2=O (some centres undefined)
tested on / at: P93_24
potency (nM): 17782
curve as filed: inhibitor, single point

SMILES: O=C(O)c1cc(O)c2c(c1)[C@H]([C@H]1c3cc(C(=O)O)cc(O)c3C(=O)c3c(O[C@@H]4OC(CO)C(O)C(O)C4O)cccc31)c1cccc(O[C@@H]3OC(CO)C(O)C(O)C3O)c1C2=O (some centres undefined)
tested on / at: CP291
potency (nM): 19011
curve as filed: inhibitor, single point

SMILES: O=C(O)c1cc(O)c2c(c1)[C@H]([C@H]1c3cc(C(=O)O)cc(O)c3C(=O)c3c(O[C@@H]4OC(CO)C(O)C(O)C4O)cccc31)c1cccc(O[C@@H]3OC(CO)C(O)C(O)C3O)c1C2=O (some centres undefined)
tested on / at: CP203
potency (nM): 19011
curve as filed: inhibitor, single point

SMILES: O=C(O)c1cc(O)c2c(c1)[C@H]([C@H]1c3cc(C(=O)O)cc(O)c3C(=O)c3c(O[C@@H]4OC(CO)C(O)C(O)C4O)cccc31)c1cccc(O[C@@H]3OC(CO)C(O)C(O)C3O)c1C2=O (some centres undefined)
tested on / at: CP297
potency (nM): 13459
curve as filed: inhibitor, single point

SMILES: O=C(O)c1cc(O)c2c(c1)[C@H]([C@H]1c3cc(C(=O)O)cc(O)c3C(=O)c3c(O[C@@H]4OC(CO)C(O)C(O)C4O)cccc31)c1cccc(O[C@@H]3OC(CO)C(O)C(O)C3O)c1C2=O (some centres undefined)
tested on / at: CP215
potency (nM): 19011
curve as filed: inhibitor, single point

SMILES: O=C(O)c1cc(O)c2c(c1)[C@H]([C@H]1c3cc(C(=O)O)cc(O)c3C(=O)c3c(O[C@@H]4OC(CO)C(O)C(O)C4O)cccc31)c1cccc(O[C@@H]3OC(CO)C(O)C(O)C3O)c1C2=O (some centres undefined)
tested on / at: CP325
potency (nM): 19011
curve as filed: inhibitor, single point

SMILES: O=C(O)c1cc(O)c2c(c1)[C@H]([C@H]1c3cc(C(=O)O)cc(O)c3C(=O)c3c(O[C@@H]4OC(CO)C(O)C(O)C4O)cccc31)c1cccc(O[C@@H]3OC(CO)C(O)C(O)C3O)c1C2=O (some centres undefined)
tested on / at: CP211
potency (nM): 13459
curve as filed: inhibitor, single point

SMILES: CCCCCCCCCCCC[N+](C)(C)CCOc1ccccc1
tested on / at: ATS95
potency (nM): 11220
curve as filed: inhibitor, single point

2 of the entries, repeated:

For O=C(O)c1cc(O)c2c(c1)[C@H]([C@H]1c3cc(C(=O)O)cc(O)c3C(=O)c3c(O[C@@H]4OC(CO)C(O)C(O)C4O)cccc31)c1cccc(O[C@@H]3OC(CO)C(O)C(O)C3O)c1C2=O (some centres undefined) [CP291] the result was potency 19011 nM (inhibitor, single point).
For O=C(O)c1cc(O)c2c(c1)[C@H]([C@H]1c3cc(C(=O)O)cc(O)c3C(=O)c3c(O[C@@H]4OC(CO)C(O)C(O)C4O)cccc31)c1cccc(O[C@@H]3OC(CO)C(O)C(O)C3O)c1C2=O (some centres undefined) [CP211] the result was potency 13459 nM (inhibitor, single point).